Reference: article PMC4439739
These are yes or no findings as the source states them, for the method shown. In cells and extracts the contact can be indirect. Here binding means that the protein was enriched with, or labelled near, the bait; the list need not be complete. For some assays here: Where a sequence is shown, tags or fusion partners need not be part of it.

By UniProt entry, the sequences of proteins in these tests, tags left out.
UniProt Q5XKP0: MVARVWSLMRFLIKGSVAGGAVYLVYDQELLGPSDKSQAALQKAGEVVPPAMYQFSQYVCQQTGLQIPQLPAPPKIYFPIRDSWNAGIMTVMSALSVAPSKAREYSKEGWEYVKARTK

Tests used:
[1] = target: C-terminally tagged QIL1 (QIL1-HA-FLAG) (human) (UniProt Q5XKP0); test: affinity purification with mass spectrometry; C-terminally tagged QIL1 as bait (Figure 1C); cell line not stated for this bait in the text (293T and/or HCT116 by the supplement's legend)
[2] = target: T1, MIC60 C-terminally tagged with HA-FLAG (human) (UniProt Q16891); test: affinity purification with mass spectrometry; C-terminally HA-FLAG-tagged baits stably expressed in 293T cells; lysis in 1% digitonin; purified on α-FLAG beads; complexes trypsinized; CompPASS scoring (network of Figure 1B)
T1 sequence: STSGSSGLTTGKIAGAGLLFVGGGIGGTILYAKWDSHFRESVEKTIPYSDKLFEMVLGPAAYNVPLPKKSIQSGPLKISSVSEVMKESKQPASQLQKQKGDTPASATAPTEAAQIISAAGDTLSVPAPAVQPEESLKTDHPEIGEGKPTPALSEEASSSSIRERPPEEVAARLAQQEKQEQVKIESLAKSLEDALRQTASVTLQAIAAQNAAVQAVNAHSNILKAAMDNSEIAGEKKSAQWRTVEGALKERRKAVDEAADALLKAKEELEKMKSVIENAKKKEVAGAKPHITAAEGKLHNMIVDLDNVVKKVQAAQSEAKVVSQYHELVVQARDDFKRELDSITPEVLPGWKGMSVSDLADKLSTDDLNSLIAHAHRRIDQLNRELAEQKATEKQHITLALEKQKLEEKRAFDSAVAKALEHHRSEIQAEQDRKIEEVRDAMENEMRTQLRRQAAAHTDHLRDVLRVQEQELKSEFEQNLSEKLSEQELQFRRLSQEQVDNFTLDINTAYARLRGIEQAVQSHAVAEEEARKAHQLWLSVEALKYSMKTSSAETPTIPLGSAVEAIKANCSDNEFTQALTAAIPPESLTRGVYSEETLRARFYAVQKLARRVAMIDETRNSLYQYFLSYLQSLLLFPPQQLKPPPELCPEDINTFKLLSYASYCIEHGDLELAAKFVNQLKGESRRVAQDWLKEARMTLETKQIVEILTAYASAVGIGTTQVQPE

[3] = target: T2, MIC25 C-terminally tagged with HA-FLAG (human) (UniProt Q9BRQ6); test: as above
T2 sequence: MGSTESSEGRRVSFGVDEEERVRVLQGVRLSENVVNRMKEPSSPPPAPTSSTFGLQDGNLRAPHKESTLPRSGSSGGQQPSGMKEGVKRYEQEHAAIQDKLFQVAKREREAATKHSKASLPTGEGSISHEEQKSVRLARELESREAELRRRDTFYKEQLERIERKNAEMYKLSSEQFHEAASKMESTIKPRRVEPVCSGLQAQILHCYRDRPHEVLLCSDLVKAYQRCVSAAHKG

[4] = target: T3, MIC19 C-terminally tagged with HA-FLAG (human) (UniProt Q9NX63); test: as above
T3 sequence: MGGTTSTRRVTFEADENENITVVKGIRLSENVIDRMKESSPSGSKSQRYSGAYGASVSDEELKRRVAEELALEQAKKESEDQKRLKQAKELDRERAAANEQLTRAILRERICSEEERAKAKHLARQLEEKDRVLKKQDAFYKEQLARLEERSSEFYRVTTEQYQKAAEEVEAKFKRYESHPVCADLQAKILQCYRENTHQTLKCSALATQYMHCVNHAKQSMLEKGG

[5] = target: T4, MIC27 C-terminally tagged with HA-FLAG (human) (UniProt Q6UXV4); test: as above
T4 sequence: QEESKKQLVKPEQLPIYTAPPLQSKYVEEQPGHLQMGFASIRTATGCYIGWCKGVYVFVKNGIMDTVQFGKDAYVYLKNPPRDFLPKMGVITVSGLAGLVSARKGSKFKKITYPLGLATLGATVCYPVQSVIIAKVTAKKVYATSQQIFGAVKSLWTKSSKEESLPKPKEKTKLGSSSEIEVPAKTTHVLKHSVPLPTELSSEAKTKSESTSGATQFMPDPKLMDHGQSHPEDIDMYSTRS

Measured: binding

B1: SAMM50, endogenous (protein, UniProt Q9Y512 1-469)
chain: MGTVHARSLEPLPSSGPDFGGLGEEAEFVEVEPEAKQEILENKDVVVQHVHFDGLGRTKDDIIICEIGDVFKAKNLIEVMRKSHEAREKLLRLGIFRQVDVLIDTCQGDDALPNGLDVTFEVTELRRLTGSYNTMVGNNEGSMVLGLKLPNLLGRAEKVTFQFSYGTKETSYGLSFFKPRPGNFERNFSVNLYKVTGQFPWSSLRETDRGMSAEYSFPIWKTSHTVKWEGVWRELGCLSRTASFAVRKESGHSLKSSLSHAMVIDSRNSSILPRRGALLKVNQELAGYTGGDVSFIKEDFELQLNKQLIFDSVFSASFWGGMLVPIGDKPSSIADRFYLGGPTSIRGFSMHSIGPQSEGDYLGGEAYWAGGLHLYTPLPFRPGQGGFGELFRTHFFLNAGNLCNLNYGEGPKAHIRKLAECIRWSYGAGIVLRLGNIARLELNYCVPMGVQTGDRICDGVQFGAGIRFL
binds: all assays above

B2: MTX1, endogenous (protein, UniProt Q13505 1-466)
chain: MLLGGPPRSPRSGTSPKGPWSSTGHVQFGKSPQTWPRRTRPRSPEPAAPSGVRGSTWTRRRDSPRRAGPTALSRYVGHLWMGRRPPSPEARGPVPRSSAASRARRSLASPGISPGPLTATIGGAVAGGGPRQGRAEAHKEVFPGQRVGKMAAPMELFCWSGGWGLPSVDLDSLAVLTYARFTGAPLKVHKISNPWQSPSGTLPALRTSHGEVISVPHKIITHLRKEKYNADYDLSARQGADTLAFMSLLEEKLLPVLVHTFWIDTKNYVEVTRKWYAEAMPFPLNFFLPGRMQRQYMERLQLLTGEHRPEDEEELEKELYREARECLTLLSQRLGSQKFFFGDAPASLDAFVFSYLALLLQAKLPSGKLQVHLRGLHNLCAYCTHILSLYFPWDGAEVPPQRQTPAGPETEEEPYRRRNQILSVLAGLAAMVGYALLSGIVSIQRATPARAPGTRTLGMAEEDEEE
binds: all assays above

B3: DNAJC11, endogenous (protein, UniProt Q9NVH1 1-559)
chain: MATALSEEELDNEDYYSLLNVRREASSEELKAAYRRLCMLYHPDKHRDPELKSQAERLFNLVHQAYEVLSDPQTRAIYDIYGKRGLEMEGWEVVERRRTPAEIREEFERLQREREERRLQQRTNPKGTISVGVDATDLFDRYDEEYEDVSGSSFPQIEINKMHISQSIEAPLTATDTAILSGSLSTQNGNGGGSINFALRRVTSAKGWGELEFGAGDLQGPLFGLKLFRNLTPRCFVTTNCALQFSSRGIRPGLTTVLARNLDKNTVGYLQWRWGIQSAMNTSIVRDTKTSHFTVALQLGIPHSFALISYQHKFQDDDQTRVKGSLKAGFFGTVVEYGAERKISRHSVLGAAVSVGVPQGVSLKVKLNRASQTYFFPIHLTDQLLPSAMFYATVGPLVVYFAMHRLIIKPYLRAQKEKELEKQRESAATDVLQKKQEAESAVRLMQESVRRIIEAEESRMGLIIVNAWYGKFVNDKSRKSEKVKVIDVTVPLQCLVKDSKLILTEASKAGLPGFYDPCVGEEKNLKVLYQFRGVLHQVMVLDSEALRIPKQSHRIDTDG
binds: [1]
